Measurements taken from the supplement of paper PMC10849652.
Some of the results follow.

The chains behind the UniProt entries cited, without tags or fusion partners. Where a name states a change or a piece, a line headed by the entry shows the natural chain unless it says otherwise.
UniProt Q9UPR3: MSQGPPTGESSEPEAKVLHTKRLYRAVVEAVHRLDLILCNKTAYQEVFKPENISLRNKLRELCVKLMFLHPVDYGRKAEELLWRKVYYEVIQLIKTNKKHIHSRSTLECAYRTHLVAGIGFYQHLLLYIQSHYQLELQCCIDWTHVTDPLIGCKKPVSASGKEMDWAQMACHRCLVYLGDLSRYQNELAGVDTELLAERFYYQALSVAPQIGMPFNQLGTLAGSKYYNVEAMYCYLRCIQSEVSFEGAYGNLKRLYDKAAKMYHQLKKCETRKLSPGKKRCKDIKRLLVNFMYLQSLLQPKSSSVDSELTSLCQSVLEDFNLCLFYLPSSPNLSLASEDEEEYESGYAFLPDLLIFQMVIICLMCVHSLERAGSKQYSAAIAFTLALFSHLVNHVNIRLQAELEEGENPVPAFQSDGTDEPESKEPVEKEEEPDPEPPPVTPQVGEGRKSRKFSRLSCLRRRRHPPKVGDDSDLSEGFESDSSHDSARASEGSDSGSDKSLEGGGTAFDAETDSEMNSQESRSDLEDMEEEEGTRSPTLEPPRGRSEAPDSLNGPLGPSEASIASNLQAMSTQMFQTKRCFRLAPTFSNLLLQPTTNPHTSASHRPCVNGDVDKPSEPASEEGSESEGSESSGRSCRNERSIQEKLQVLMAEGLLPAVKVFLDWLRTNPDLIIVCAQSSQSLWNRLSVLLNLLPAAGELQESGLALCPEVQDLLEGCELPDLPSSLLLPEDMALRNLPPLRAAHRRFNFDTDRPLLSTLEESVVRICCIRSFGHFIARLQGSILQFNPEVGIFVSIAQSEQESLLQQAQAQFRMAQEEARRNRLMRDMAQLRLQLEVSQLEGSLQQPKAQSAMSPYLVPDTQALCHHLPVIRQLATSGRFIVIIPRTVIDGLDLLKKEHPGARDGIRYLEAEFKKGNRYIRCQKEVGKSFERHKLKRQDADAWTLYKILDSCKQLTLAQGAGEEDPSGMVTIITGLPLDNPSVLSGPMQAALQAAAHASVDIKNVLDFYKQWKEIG
UniProt P02814: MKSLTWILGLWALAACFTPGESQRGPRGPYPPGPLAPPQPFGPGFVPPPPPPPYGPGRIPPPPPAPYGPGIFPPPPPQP
UniProt O60271: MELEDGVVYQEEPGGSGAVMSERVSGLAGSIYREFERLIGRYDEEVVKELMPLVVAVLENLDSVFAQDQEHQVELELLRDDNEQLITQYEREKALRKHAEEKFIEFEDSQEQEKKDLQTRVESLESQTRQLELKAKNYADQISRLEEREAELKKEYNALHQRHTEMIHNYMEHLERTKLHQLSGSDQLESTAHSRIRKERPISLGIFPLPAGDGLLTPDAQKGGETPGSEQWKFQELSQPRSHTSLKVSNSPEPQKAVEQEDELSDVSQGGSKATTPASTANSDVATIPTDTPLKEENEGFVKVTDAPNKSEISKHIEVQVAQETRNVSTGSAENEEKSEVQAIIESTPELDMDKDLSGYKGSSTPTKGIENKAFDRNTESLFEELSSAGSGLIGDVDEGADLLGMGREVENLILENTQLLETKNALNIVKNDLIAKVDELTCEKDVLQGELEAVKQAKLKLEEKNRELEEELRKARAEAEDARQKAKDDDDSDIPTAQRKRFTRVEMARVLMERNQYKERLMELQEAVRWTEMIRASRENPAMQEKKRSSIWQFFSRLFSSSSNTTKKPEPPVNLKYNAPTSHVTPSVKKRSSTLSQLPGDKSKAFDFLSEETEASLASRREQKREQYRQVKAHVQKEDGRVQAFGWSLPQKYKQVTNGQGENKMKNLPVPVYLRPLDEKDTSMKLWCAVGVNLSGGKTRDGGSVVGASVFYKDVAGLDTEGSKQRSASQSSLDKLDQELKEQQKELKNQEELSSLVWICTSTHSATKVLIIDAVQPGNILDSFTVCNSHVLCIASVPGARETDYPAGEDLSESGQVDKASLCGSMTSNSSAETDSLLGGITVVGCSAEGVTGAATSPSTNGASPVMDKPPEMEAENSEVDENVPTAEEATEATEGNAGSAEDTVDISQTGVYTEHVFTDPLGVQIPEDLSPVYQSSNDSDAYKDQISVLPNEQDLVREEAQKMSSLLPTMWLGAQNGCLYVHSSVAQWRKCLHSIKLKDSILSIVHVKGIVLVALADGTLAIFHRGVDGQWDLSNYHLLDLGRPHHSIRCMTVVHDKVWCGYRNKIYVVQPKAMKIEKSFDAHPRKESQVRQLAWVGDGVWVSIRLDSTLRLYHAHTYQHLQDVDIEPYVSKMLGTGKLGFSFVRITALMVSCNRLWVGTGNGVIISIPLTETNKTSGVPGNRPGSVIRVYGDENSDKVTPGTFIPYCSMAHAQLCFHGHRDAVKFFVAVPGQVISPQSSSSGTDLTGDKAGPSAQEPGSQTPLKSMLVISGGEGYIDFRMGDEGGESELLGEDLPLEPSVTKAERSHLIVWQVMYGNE
UniProt Q9Y2E8: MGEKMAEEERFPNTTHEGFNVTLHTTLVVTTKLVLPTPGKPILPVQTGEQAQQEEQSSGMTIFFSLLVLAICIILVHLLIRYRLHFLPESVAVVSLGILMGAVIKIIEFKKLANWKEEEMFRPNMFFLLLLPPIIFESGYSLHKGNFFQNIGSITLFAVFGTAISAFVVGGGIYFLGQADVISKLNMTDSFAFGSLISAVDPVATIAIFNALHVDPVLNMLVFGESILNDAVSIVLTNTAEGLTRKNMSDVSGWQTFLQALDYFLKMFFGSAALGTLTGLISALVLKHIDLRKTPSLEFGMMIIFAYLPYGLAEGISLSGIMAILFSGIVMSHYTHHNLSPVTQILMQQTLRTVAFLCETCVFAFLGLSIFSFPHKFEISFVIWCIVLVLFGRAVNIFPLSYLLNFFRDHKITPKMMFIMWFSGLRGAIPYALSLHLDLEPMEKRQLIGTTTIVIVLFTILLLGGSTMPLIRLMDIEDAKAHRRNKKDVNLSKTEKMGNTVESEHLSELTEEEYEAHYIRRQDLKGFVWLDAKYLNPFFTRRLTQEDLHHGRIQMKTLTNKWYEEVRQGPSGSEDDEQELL
UniProt Q9Y5W7: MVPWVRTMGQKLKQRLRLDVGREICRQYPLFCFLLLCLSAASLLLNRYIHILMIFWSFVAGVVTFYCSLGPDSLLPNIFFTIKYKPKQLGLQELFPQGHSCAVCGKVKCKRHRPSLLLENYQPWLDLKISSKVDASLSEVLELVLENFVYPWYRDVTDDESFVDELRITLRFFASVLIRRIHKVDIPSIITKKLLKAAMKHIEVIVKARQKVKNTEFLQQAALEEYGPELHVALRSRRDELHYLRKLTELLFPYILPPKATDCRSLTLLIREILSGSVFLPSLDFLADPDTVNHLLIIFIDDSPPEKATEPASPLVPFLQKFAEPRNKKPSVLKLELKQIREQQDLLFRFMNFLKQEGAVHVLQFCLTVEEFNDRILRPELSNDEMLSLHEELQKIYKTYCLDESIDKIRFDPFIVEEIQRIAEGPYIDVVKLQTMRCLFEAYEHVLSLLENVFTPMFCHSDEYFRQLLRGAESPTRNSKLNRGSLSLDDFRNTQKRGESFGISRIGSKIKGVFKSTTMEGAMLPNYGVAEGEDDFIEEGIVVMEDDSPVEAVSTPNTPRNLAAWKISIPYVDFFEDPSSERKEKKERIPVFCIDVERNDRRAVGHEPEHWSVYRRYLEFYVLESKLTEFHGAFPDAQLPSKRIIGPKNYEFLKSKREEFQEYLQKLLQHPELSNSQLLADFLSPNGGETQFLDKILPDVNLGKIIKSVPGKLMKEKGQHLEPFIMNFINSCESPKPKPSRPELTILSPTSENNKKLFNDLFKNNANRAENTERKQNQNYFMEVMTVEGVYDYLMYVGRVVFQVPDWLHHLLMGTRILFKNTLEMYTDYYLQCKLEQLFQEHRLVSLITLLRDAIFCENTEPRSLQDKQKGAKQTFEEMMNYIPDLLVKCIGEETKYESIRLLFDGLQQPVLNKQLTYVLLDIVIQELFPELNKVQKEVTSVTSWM
UniProt P0DJ93: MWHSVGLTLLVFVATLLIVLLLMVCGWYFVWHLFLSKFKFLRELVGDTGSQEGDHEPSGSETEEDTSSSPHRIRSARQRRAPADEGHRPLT
UniProt Q0VAQ4: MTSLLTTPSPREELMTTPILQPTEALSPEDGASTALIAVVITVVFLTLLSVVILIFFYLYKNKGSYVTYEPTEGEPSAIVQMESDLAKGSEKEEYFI
UniProt P58511: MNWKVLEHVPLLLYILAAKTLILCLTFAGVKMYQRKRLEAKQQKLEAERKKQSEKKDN
UniProt Q8WVI0: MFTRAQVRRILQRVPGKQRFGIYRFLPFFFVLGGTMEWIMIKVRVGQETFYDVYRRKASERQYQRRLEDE
UniProt P35711: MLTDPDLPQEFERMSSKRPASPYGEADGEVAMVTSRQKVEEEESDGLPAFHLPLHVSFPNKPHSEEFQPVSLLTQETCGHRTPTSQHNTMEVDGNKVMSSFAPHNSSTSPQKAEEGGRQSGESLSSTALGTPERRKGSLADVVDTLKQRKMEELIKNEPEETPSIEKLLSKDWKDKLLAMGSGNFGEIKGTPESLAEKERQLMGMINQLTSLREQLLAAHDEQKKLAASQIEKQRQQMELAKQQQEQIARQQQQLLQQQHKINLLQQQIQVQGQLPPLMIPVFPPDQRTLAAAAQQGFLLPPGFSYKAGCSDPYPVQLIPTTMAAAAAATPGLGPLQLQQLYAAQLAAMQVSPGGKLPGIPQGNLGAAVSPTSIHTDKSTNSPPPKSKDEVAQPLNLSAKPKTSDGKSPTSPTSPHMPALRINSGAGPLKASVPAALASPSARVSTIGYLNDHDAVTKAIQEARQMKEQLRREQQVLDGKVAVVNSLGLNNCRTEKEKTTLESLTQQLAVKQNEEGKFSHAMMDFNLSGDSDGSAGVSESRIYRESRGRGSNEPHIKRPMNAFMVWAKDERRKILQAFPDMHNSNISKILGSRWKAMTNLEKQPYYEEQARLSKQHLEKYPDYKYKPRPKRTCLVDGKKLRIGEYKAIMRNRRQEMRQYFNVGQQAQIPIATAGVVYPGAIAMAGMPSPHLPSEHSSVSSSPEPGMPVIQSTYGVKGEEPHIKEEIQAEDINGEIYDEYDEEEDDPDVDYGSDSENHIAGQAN
UniProt Q3SY56: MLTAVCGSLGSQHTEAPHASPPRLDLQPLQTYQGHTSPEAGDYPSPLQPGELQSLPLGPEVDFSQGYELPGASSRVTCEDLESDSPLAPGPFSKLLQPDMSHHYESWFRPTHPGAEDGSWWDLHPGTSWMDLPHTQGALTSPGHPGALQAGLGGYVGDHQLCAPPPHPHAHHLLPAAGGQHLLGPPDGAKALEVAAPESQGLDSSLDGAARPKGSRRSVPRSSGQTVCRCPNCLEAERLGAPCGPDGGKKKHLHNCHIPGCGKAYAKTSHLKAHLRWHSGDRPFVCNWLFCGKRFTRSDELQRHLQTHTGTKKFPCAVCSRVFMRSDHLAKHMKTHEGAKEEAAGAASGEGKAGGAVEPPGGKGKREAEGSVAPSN
UniProt Q9H3E2: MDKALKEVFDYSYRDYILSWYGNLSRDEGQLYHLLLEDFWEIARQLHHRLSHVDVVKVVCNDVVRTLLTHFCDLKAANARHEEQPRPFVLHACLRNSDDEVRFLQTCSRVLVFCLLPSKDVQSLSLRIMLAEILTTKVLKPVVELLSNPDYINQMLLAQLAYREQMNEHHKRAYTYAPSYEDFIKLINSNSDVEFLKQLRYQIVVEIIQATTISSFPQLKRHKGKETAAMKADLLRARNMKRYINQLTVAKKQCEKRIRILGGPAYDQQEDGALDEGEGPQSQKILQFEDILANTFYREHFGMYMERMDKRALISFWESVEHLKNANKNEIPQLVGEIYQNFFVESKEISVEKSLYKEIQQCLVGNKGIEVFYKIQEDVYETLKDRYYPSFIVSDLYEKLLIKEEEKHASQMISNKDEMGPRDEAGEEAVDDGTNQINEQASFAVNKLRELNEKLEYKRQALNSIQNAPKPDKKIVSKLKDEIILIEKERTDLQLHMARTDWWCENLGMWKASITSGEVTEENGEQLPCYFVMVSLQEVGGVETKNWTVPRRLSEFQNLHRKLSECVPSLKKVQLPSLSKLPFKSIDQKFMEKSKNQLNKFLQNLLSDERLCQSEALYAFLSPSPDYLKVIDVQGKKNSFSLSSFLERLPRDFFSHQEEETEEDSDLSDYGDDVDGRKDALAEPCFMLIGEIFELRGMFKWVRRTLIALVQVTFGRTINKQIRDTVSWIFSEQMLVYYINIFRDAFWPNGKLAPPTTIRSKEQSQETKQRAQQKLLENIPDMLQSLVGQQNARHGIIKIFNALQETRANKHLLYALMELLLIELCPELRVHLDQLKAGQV
UniProt Q86T20: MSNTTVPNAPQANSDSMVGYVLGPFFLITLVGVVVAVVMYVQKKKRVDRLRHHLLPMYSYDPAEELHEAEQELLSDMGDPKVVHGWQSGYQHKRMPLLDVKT
UniProt O00161: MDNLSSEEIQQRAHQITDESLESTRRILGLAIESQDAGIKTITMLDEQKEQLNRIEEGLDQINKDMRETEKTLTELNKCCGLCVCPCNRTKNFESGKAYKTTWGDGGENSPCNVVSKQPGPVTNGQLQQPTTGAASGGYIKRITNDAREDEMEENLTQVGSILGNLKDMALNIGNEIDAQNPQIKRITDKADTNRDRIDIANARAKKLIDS

Compound: Cc1ccc(NC(=O)c2ccc(CN3CC[C@H](N(C)C)C3)c(C(F)(F)F)c2)cc1Nc1nccc(-c2cncnc2)n1 [bafetinib]
Experiment: log2 fold change, soluble protein after heating vs DMSO (PISA); higher = thermal stabilisation; K562 cells, 10 uM, 30 min; active = over 0.2 and 3.5 SD of the protein, either way, in both replicates (recomputed)
In short: (§1)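 Soluble protein was defined as the supernatant after 21,000xg for 90 min. It came from K562 cells at 2×10^6 cells/mL given 10 μM compound for 30 min, heated in aliquots for 3 min across 48°C-58°C, pooled, and extracted in PBS with 0.5% NP-40 at 4°C, and was quantified by TMTpro 16plex LC-MS/MS with equalised channel sums. Thermal stability against control samples, from duplicates, is reported as log2 fold change.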

Target | log2 fold change
SNX13 (UniProt Q9Y5W8) | inactive: 0.192
SMG5 (UniProt Q9UPR3) | inactive: 0.012
SMR3B (UniProt P02814) | inactive: -0.079
SPAG9 isoform 4 (UniProt O60271) | inactive: -0.301
SOS1 (UniProt Q07889) | inactive: -0.069
SLC9A8 isoform 2 (UniProt Q9Y2E8) | inactive: -0.017
SNX2 isoform 2 (UniProt O60749) | inactive: -0.163
SNX14 (UniProt Q9Y5W7) | inactive: -0.081
SMIM13 (UniProt P0DJ93) | inactive: -0.128
SMAGP (UniProt Q0VAQ4) | inactive: 0.053
SMIM11A (UniProt P58511) | inactive: -0.045
SMIM4 (UniProt Q8WVI0) | inactive: 0.025
SOX5 (UniProt P35711) | inactive: -0.06
SLC9A6 isoform 3 (UniProt Q92581) | inactive: -0.096
SP6 (UniProt Q3SY56) | inactive: -0.154

Compound: Cc1cccc(CC(=O)N2CCc3c2ccc(-c2cn(C)c4ncnc(N)c24)c3F)n1
Experiment: as above
In short: as §1

Target | log2 fold change
SNIP1 (UniProt Q8TAD8) | inactive: -0.091
SOD3 (UniProt P08294) | inactive: 0.008
SMARCD2 (UniProt Q92925) | inactive: 0.118
SNX27 (UniProt Q96L92) | inactive: 0.246
SNRPN isoform 2 (UniProt P63162) | inactive: -0.139
SNX4 (UniProt O95219) | inactive: -0.026
SMARCB1 (UniProt Q12824) | inactive: -0.277
SP4 (UniProt Q02446) | inactive: 0.082
SMAD3 (UniProt P84022) | inactive: -0.018
SMPD1 (UniProt P17405) | inactive: 0.17

Compound: Cc1cn(-c2cc(NC(=O)c3ccc(C)c(Nc4nccc(-c5cccnc5)n4)c3)cc(C(F)(F)F)c2)cn1 [nilotinib]
Experiment: as above
In short: as §1

Target | log2 fold change
SMG5 (UniProt Q9UPR3) | inactive: 0.023
SMR3B (UniProt P02814) | inactive: 0.021
SPAG9 isoform 4 (UniProt O60271) | inactive: 0.073
SOS1 (UniProt Q07889) | inactive: -0.161
SNX25 (UniProt Q9H3E2) | inactive: 0.041
SLC9A8 isoform 2 (UniProt Q9Y2E8) | inactive: -0.059
SNX14 (UniProt Q9Y5W7) | inactive: -0.014
SMIM13 (UniProt P0DJ93) | inactive: 0.016
SMAGP (UniProt Q0VAQ4) | inactive: 0.098
SMIM11A (UniProt P58511) | inactive: 0.065
SMIM4 (UniProt Q8WVI0) | inactive: -0.056
SP4 (UniProt Q02446) | inactive: 0.119
SMUG1 (UniProt Q53HV7) | inactive: 0.057
SOX5 (UniProt P35711) | active: -0.437
SP6 (UniProt Q3SY56) | inactive: -0.148

Compound: Cc1nc(Nc2n[nH]c3c2CN(C(=O)N[C@H](CN(C)C)c2ccccc2)C3(C)C)c2sccc2n1
Experiment: as above
In short: as §1

Target | log2 fold change
SMG5 (UniProt Q9UPR3) | inactive: -0.025
SMR3B (UniProt P02814) | inactive: -0.081
SPAG9 isoform 4 (UniProt O60271) | inactive: -0.118
SOS1 (UniProt Q07889) | inactive: 0.075
SNX25 (UniProt Q9H3E2) | inactive: 0.1
SLC9A8 isoform 2 (UniProt Q9Y2E8) | inactive: -0.044
SNX14 (UniProt Q9Y5W7) | inactive: 0.009
SMIM13 (UniProt P0DJ93) | inactive: 0.025
SMAGP (UniProt Q0VAQ4) | inactive: -0.038
SMIM11A (UniProt P58511) | inactive: 0.072
SMIM4 (UniProt Q8WVI0) | inactive: 0.043
SP4 (UniProt Q02446) | inactive: 0.053
SMUG1 (UniProt Q53HV7) | inactive: 0.045
SOX5 (UniProt P35711) | inactive: -0.011
SP6 (UniProt Q3SY56) | inactive: 0.205

Compound: Cc1nc(Nc2ncc(C(=O)Nc3c(C)cccc3Cl)s2)cc(N2CCN(CCO)CC2)n1 [dasatinib]
Experiment: as above
In short: as §1

Target | log2 fold change
SNRK (UniProt Q9NRH2) | inactive: -0.061
SNX13 (UniProt Q9Y5W8) | inactive: 0.067
SMG5 (UniProt Q9UPR3) | inactive: -0.038
SNX25 (UniProt Q9H3E2) | inactive: 0.081
SMIM29 (UniProt Q86T20) | inactive: 0.225
SLC9A8 isoform 2 (UniProt Q9Y2E8) | inactive: -0.001
SNX2 isoform 2 (UniProt O60749) | inactive: -0.097
SOD3 (UniProt P08294) | inactive: 0.02
SMPDL3A (UniProt Q92484) | inactive: 0.27
SNAP23 isoform 2 (UniProt O00161) | inactive: 0.096
SNX14 (UniProt Q9Y5W7) | inactive: -0.378
SP2 (UniProt Q02086) | inactive: 0.001
SMAGP (UniProt Q0VAQ4) | inactive: -0.038
SNX27 (UniProt Q96L92) | inactive: -0.117
SMIM4 (UniProt Q8WVI0) | inactive: -0.229
SMARCB1 (UniProt Q12824) | inactive: -0.059
SMAD3 (UniProt P84022) | inactive: -0.115
SLC9A6 isoform 3 (UniProt Q92581) | inactive: 0.065
SP6 (UniProt Q3SY56) | inactive: -0.035
SMPD1 (UniProt P17405) | inactive: -0.138
SMIM19 (UniProt Q96E16) | inactive: 0.302
